Assay results as given in the supplement of paper PMC10849652.
This is one part of the list.

The chains behind the UniProt entries cited, without tags or fusion partners. Where a name states a change or a piece, a line headed by the entry shows the natural chain unless it says otherwise.
UniProt Q08623: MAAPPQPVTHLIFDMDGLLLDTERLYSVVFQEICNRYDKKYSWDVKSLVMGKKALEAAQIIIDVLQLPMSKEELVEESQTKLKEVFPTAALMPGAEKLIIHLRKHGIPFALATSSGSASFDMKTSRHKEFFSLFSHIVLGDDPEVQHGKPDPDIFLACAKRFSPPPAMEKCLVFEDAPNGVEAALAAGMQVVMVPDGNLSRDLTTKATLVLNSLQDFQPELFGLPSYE
UniProt Q9BVG9: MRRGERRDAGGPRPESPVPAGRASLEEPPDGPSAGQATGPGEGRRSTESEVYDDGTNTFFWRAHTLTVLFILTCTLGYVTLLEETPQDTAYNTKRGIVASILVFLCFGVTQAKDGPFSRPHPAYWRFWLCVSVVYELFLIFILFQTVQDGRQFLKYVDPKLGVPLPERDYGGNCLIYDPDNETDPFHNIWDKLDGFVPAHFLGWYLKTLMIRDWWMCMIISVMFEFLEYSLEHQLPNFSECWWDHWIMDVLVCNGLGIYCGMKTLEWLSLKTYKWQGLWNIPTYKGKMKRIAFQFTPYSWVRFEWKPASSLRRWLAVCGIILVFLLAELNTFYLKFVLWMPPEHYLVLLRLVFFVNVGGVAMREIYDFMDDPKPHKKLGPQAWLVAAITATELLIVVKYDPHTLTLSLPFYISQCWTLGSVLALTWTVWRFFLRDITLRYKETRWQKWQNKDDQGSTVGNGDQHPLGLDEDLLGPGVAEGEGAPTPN
UniProt P18031: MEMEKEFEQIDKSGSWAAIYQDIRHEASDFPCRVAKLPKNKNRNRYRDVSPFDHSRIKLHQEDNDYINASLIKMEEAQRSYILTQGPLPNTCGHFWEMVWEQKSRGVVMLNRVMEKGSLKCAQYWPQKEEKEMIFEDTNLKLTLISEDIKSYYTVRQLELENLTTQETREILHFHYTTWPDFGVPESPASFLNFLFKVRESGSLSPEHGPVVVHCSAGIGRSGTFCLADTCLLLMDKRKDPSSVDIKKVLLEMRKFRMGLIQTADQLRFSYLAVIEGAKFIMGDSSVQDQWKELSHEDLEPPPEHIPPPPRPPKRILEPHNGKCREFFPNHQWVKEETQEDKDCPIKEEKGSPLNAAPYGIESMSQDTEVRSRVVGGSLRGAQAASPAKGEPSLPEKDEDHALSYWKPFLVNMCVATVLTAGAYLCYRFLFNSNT
UniProt O75832: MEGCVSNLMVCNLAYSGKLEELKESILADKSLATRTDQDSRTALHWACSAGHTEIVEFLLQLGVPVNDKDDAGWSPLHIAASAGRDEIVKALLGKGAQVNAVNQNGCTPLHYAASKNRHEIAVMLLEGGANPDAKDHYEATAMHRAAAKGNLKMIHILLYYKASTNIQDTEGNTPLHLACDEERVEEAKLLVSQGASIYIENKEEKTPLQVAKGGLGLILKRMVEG
UniProt P49721: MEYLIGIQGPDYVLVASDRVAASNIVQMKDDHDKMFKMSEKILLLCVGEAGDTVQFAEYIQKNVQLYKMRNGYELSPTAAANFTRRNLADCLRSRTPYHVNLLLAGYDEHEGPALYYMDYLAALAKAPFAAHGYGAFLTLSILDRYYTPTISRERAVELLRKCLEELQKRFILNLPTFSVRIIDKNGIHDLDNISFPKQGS
UniProt Q99436: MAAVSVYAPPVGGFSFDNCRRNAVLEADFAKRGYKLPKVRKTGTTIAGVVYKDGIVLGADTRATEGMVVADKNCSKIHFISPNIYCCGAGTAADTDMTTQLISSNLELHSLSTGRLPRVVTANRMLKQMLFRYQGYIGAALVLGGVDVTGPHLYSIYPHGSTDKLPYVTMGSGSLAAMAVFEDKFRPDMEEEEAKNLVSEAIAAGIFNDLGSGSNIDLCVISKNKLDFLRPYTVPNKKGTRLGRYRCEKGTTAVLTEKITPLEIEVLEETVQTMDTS
UniProt Q92530: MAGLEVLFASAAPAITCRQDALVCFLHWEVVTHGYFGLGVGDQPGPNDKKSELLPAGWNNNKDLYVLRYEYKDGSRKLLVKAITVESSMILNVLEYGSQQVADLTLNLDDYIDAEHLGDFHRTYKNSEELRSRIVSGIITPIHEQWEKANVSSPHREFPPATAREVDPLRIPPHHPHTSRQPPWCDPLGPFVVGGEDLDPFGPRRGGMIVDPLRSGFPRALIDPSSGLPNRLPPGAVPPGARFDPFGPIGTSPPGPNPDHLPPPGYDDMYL
UniProt O95758: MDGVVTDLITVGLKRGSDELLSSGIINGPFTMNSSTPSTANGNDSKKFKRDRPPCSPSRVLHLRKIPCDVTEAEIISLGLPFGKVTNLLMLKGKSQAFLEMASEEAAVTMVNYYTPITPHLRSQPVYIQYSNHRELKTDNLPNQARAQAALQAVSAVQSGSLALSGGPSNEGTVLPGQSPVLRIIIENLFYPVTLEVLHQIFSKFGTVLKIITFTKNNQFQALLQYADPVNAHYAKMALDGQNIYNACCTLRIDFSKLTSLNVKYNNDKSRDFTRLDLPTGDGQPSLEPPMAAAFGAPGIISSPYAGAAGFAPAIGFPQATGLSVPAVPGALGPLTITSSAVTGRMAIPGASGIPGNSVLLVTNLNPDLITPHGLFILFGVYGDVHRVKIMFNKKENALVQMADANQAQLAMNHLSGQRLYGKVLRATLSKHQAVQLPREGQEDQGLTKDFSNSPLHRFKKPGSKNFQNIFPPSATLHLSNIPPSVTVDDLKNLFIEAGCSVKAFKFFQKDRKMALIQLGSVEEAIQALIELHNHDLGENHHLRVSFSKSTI
UniProt Q9BZE2: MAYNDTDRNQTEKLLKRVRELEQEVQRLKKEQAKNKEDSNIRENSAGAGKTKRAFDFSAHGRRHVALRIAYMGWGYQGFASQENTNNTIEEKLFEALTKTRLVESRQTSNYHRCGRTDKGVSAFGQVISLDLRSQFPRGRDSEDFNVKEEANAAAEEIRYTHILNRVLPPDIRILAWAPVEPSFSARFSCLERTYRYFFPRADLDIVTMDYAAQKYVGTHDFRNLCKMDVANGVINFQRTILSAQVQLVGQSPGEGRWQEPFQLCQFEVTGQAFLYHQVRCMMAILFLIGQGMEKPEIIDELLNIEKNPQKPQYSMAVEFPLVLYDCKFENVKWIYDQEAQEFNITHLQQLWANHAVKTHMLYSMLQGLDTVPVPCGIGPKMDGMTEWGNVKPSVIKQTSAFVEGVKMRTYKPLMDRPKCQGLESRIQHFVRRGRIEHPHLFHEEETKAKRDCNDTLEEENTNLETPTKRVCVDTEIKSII
UniProt P25789: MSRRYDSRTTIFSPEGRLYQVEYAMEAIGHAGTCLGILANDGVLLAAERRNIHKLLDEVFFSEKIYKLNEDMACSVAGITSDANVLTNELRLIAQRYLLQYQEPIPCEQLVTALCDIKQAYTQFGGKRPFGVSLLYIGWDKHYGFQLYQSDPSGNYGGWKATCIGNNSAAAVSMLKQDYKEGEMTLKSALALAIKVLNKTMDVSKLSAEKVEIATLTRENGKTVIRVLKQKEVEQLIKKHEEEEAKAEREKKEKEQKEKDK
UniProt Q7Z6K3: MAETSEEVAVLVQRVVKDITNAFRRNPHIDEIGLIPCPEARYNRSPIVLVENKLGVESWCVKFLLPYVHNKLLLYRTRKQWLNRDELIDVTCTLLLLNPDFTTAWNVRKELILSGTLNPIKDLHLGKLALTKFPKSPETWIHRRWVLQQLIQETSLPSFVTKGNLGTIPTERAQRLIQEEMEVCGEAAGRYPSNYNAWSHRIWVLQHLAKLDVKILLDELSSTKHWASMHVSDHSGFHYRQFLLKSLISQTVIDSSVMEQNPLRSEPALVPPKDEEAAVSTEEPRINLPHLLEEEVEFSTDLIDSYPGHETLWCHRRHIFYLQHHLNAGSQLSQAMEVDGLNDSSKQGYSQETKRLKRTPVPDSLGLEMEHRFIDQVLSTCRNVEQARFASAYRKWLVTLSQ
UniProt Q05397, whole entry, looked up: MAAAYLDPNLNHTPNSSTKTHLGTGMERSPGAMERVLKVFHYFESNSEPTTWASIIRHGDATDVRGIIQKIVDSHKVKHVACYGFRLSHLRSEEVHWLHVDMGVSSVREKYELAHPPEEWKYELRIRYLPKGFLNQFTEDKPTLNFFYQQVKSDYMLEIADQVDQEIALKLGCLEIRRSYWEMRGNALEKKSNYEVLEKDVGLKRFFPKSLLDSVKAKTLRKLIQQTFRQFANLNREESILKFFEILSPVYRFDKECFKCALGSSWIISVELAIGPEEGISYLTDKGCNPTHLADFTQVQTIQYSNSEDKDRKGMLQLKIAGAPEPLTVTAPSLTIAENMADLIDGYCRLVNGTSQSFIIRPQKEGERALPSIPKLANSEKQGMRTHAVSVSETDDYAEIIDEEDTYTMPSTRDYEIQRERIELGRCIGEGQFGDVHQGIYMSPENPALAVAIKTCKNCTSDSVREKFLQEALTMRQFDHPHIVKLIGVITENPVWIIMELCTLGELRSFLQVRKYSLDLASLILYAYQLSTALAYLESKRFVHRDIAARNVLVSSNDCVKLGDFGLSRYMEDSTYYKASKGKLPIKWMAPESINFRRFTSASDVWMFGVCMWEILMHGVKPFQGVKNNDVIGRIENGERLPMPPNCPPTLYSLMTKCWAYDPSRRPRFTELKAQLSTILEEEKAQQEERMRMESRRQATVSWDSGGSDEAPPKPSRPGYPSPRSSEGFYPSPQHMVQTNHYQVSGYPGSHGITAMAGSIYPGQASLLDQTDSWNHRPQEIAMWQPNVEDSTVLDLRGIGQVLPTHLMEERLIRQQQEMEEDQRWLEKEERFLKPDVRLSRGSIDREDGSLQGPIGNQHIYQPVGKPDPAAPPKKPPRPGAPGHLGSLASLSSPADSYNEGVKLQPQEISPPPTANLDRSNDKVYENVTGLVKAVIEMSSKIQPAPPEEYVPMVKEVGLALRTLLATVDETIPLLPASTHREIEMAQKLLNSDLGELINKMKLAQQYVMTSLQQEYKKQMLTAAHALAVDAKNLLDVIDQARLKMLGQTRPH
UniProt P47897: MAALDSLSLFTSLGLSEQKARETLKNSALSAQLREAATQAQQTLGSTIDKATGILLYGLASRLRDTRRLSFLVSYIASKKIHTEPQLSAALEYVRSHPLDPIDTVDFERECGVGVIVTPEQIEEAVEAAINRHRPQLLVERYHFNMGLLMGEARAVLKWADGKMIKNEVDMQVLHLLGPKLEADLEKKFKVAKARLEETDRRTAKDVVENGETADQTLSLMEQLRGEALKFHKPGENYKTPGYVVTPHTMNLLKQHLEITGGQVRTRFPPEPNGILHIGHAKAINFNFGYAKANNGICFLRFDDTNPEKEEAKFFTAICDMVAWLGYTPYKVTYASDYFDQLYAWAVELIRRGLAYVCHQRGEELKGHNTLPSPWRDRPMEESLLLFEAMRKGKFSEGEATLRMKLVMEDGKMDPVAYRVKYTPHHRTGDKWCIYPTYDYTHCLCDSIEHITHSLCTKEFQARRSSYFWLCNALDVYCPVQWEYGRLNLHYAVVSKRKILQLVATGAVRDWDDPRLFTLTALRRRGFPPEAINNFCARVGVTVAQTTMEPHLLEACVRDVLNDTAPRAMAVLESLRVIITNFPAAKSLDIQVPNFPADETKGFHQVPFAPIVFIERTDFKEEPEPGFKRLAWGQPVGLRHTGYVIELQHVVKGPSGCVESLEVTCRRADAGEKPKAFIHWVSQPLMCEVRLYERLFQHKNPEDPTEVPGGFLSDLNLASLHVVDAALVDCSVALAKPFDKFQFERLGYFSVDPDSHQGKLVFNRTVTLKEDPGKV
UniProt Q9NXS2: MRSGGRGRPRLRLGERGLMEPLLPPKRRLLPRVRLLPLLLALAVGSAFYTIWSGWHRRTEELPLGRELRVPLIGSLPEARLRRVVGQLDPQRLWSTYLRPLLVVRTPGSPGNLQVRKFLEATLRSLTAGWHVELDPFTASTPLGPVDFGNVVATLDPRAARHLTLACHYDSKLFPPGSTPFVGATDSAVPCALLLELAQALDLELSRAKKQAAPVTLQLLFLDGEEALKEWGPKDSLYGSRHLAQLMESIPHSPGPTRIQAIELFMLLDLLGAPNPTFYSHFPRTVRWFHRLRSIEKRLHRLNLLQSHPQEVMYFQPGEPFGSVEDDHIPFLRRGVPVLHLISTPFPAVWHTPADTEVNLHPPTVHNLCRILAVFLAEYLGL
UniProt P61289: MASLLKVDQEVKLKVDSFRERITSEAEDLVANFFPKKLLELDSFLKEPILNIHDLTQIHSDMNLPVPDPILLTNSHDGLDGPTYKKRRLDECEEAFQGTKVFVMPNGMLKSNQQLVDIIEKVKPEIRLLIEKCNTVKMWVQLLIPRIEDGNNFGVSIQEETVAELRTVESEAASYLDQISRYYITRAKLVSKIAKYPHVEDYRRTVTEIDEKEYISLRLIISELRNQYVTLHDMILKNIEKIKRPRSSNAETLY
UniProt P25787: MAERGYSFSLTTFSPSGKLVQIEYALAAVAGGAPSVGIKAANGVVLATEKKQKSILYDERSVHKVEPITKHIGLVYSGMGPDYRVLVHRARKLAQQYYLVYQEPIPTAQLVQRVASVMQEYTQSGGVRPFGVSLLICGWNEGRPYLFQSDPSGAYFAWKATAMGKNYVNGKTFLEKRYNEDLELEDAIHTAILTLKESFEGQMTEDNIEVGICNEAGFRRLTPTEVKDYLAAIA

How the values were obtained:
Assay in all cases: log2 fold change, soluble protein after heating vs DMSO (PISA); higher = thermal stabilisation; K562 cells, 10 uM, 30 min; active = over 0.2 and 3.5 SD of the protein, either way, in both replicates (recomputed)
[1] = compound: CC1=C(C=C(C=C1)NC(=O)C2=CC(=CC=C2)C(C)(C)C#N)NC3=CC4=C(C=C3)N=CN(C4=O)C
In short: (§1)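 K562 cells at 2×10^6 cells/mL were treated with 10 μM compound for 30 min. Aliquots were heated for 3 min across 48°C-58°C, pooled, and extracted in PBS with 0.5% NP-40 at 4°C; soluble protein was the supernatant after 21,000xg for 90 min. Soluble protein was quantified by TMTpro 16plex LC-MS/MS with channel sums equalised, and reported as log2 fold change in thermal stability against DMSO controls, with values from duplicates.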

[2] = compound: CC1=C(C=C(C=C1)NC(=O)C2=CC(=CC=C2)N(C)C)NC(=O)C3=CC=C(C=C3)O
In short: as §1

[3] = compound: CC1=CC=C(C=C1)SC2=C3C=C(SC3=CN=C2)C(=O)N
In short: as §1

[4] = compound: CC1=NC(=CC=C1)C2=C(N=C(N2)C(C)(C)C)C3=CC4=NC=CN=C4C=C3
In short: as §1

Nexturastat A = compound: CCCCN(Cc1ccc(C(=O)NO)cc1)C(=O)Nc1ccccc1 [Nexturastat A]
In short: as §1

vemurafenib = compound: CCCS(=O)(=O)Nc1ccc(F)c(C(=O)c2c[nH]c3ncc(-c4ccc(Cl)cc4)cc23)c1F [vemurafenib]
In short: as §1

[5] = compound: CCCS(=O)(=O)Nc1ccc(F)c(C(=O)c2c[nH]c3ncc(Cl)cc23)c1F
In short: as §1

[6] = compound: CCCc1cc(C)[nH]c(=O)c1CNC(=O)c1cc(-c2ccnc(N3CCN(C)CC3)c2)cc2c1cnn2C(C)C
In short: as §1

givinostat = compound: CCN(CC)Cc1ccc2cc(COC(=O)Nc3ccc(C(=O)NO)cc3)ccc2c1 [givinostat]
In short: as §1

barasertib = compound: CCN(CCCOc1ccc2c(Nc3cc(CC(=O)Nc4cccc(F)c4)[nH]n3)ncnc2c1)CCOP(=O)(O)O [barasertib]
In short: as §1

[7] = compound: CC[C@@H]1C(=O)N(C)c2cnc(Nc3ccc(C(=O)NC4CCN(C)CC4)cc3OC)nc2N1C1CCCC1
In short: as §1

volasertib = compound: CC[C@@H]1C(=O)N(C)c2cnc(Nc3ccc(C(=O)N[C@H]4CC[C@H](N5CCN(CC6CC6)CC5)CC4)cc3OC)nc2N1C(C)C [volasertib]
In short: as §1

[8] = compound: CC[C@H](C)N1C=C(C2=C(C=C(C=C21)C3=CN=C(C=C3)N4CCNCC4)C(=O)NCC5=C(C=C(NC5=O)C)C)C
In short: as §1

epoxomicin = compound: CC[C@H](C)[C@@H](C(=O)N[C@@H]([C@@H](C)O)C(=O)N[C@@H](CC(C)C)C(=O)[C@]1(CO1)C)NC(=O)[C@H]([C@@H](C)CC)N(C)C(=O)C [epoxomicin]
In short: as §1

[9] = compound: CCn1c(C(=O)N(C2CC2)C2CC2)cc2c3c(ncn3C)c(Nc3cc(C)n(C)n3)nc21
In short: as §1

[10] = compound: CCn1cc(-c2ccnc3[nH]c(-c4cccc(CN(C)C)c4)cc23)c(-c2ccc(NC(=O)N(C)C)cc2)n1
In short: as §1

[11] = compound: CN(C)CC(=O)Nc1ccc2[nH]c(=O)c3ccccc3c2c1
In short: as §1

rosiglitazone = compound: CN(CCOC1=CC=C(C=C1)C[C@H]2C(=O)NC(=O)S2)C3=CC=CC=N3 (racemic) [rosiglitazone]
In short: as §1

[12] = compound: CN1C2=C(C3=C1C(=O)N(N=C3)CC4=CC(=CC=C4)N)SC(=C2)S(=O)C
In short: as §1

[13] = compound: CN1CCC(CNc2ccc3ncc(-c4cccc(OC(F)(F)F)c4)n3n2)CC1
In short: as §1

Measured: log2 fold change

PUDP isoform 4 (UniProt Q08623)
inactive: [1] 0.025 | [2] -0.012 | [3] 0.073 | [4] 0.055 | Nexturastat A -0.048 | vemurafenib 0.067 | [5] 0.061 | [6] -0.017 | givinostat -0.049 | barasertib 0.038 | [7] -0.015 | volasertib 0.004 | [8] 0.001 | epoxomicin -0.085 | [9] -0.023 | [10] -0.06 | [11] 0.013 | rosiglitazone 0.016 | [12] -0.031 | [13] -0.008

PTDSS2 (UniProt Q9BVG9)
inactive: [1] -0.015 | [2] -0.02 | [3] 0.031 | [4] 0.047 | Nexturastat A -0.1 | vemurafenib -0.012 | [5] -0.003 | [6] 0.007 | givinostat 0.059 | barasertib 0.038 | [7] -0.072 | volasertib -0.137 | [8] -0.03 | epoxomicin -0.146 | [9] -0.002 | [10] -0.011 | [11] 0.007 | rosiglitazone 0.022 | [12] -0.075 | [13] -0.059

PTPN1 (UniProt P18031)
inactive: [1] -0.065 | [2] -0.066 | [3] 0.025 | [4] -0.054 | Nexturastat A 0.145 | vemurafenib -0.011 | [5] 0.069 | [6] 0.069 | givinostat 0.154 | barasertib 0.101 | [7] -0.104 | volasertib -0.461 | [8] 0.08 | epoxomicin -0.019 | [9] -0.116 | [10] 0.046 | [11] 0.023 | rosiglitazone 0.055 | [12] 0.181 | [13] -0.04

PSMD10 (UniProt O75832)
inactive: [1] -0.029 | [2] -0.079 | [3] 0.042 | [4] 0.061 | Nexturastat A -0.041 | vemurafenib 0.055 | [5] 0.096 | [6] -0.007 | givinostat 0.023 | barasertib 0.031 | [7] -0.127 | volasertib -0.155 | [8] 0.048 | epoxomicin 0.139 | [9] 0.082 | [10] -0.016 | [11] 0.057 | rosiglitazone 0.033 | [12] -0.034 | [13] 0.037

PSMB2 (UniProt P49721)
inactive: [1] 0.02 | [2] -0.043 | [3] 0.174 | [4] 0.044 | Nexturastat A 0.04 | vemurafenib -0.056 | [5] -0.094 | [6] -0.021 | givinostat -0.057 | barasertib -0.03 | [7] 0.047 | volasertib 0.117 | [8] -0.051 | epoxomicin -0.151 | [9] 0.029 | [10] 0.059 | [11] -0.03 | rosiglitazone -0.028 | [12] 0.005 | [13] 0.089

PSMB7 (UniProt Q99436)
inactive: [1] -0.005 | [2] 0.001 | [3] -0.026 | [4] -0.025 | Nexturastat A 0.03 | vemurafenib -0.039 | [5] -0.016 | [6] -0.014 | givinostat -0.009 | barasertib -0.029 | [7] 0.062 | volasertib 0.148 | [8] -0.018 | epoxomicin -0.184 | [9] 0.008 | [10] 0.01 | [11] -0.028 | rosiglitazone -0.023 | [12] -0.009 | [13] 0.063

PSMF1 (UniProt Q92530)
inactive: [1] -0.025 | [2] -0.008 | [3] 0.009 | [4] 0.011 | Nexturastat A 0.01 | vemurafenib -0.026 | [5] 0.007 | [6] -0.073 | givinostat 0.012 | barasertib 0.001 | [7] 0.009 | volasertib 0.035 | [8] -0.058 | epoxomicin -0.032 | [9] 0.006 | [10] -0.031 | [11] 0.001 | rosiglitazone 0.026 | [12] -0.057 | [13] -0.08

Taken from the results shown (two entries):
PTPN1 (UniProt P18031)
inactive: [1] -0.065 | [2] -0.066 | [3] 0.025 | [4] -0.054 | Nexturastat A 0.145 | vemurafenib -0.011 | [5] 0.069 | [6] 0.069 | givinostat 0.154 | barasertib 0.101 | [7] -0.104 | volasertib -0.461 | [8] 0.08 | epoxomicin -0.019 | [9] -0.116 | [10] 0.046 | [11] 0.023 | rosiglitazone 0.055 | [12] 0.181 | [13] -0.04

PSMD10 (UniProt O75832)
inactive: [1] -0.029 | [2] -0.079 | [3] 0.042 | [4] 0.061 | Nexturastat A -0.041 | vemurafenib 0.055 | [5] 0.096 | [6] -0.007 | givinostat 0.023 | barasertib 0.031 | [7] -0.127 | volasertib -0.155 | [8] 0.048 | epoxomicin 0.139 | [9] 0.082 | [10] -0.016 | [11] 0.057 | rosiglitazone 0.033 | [12] -0.034 | [13] 0.037

The list continues:

PTBP3 isoform 4 (UniProt O95758)
inactive: [1] 0.111 | [2] -0.028 | [3] 0.057 | [4] 0.068 | Nexturastat A 0.004 | vemurafenib 0.074 | [5] 0.144 | [6] 0.048 | givinostat 0.083 | barasertib -0.012 | [7] -0.041 | volasertib -0.234 | [8] 0.086 | epoxomicin 0.027 | [9] 0.018 | [10] -0.016 | [11] 0.034 | rosiglitazone 0.014 | [12] -0.023 | [13] -0.082

PUS3 (UniProt Q9BZE2)
inactive: [1] 0.053 | [2] 0.03 | [3] 0.032 | [4] -0.018 | Nexturastat A -0.114 | vemurafenib 0.015 | [5] 0.085 | [6] -0.028 | givinostat -0.015 | barasertib 0.033 | [7] -0.054 | volasertib -0.142 | [8] 0.02 | epoxomicin 0 | [9] 0.03 | [10] 0.074 | [11] -0.013 | rosiglitazone 0.049 | [12] -0.038 | [13] -0.045

PSMA4 (UniProt P25789)
inactive: [1] 0.032 | [2] 0.025 | [3] -0.042 | [4] -0.009 | Nexturastat A -0.04 | vemurafenib -0.01 | [5] -0.054 | [6] -0.011 | givinostat -0.029 | barasertib -0.047 | [7] 0.067 | volasertib 0.151 | [8] -0.038 | epoxomicin -0.126 | [9] 0.025 | [10] 0.09 | [11] -0.028 | rosiglitazone -0.018 | [12] 0.014 | [13] 0.079

PTAR1 (UniProt Q7Z6K3)
inactive: [1] -0.035 | [2] -0.031 | [3] -0.019 | [4] -0.026 | Nexturastat A -0.034 | vemurafenib 0.016 | [5] 0.005 | [6] 0.02 | givinostat -0.071 | barasertib 0.021 | [7] 0.07 | volasertib 0.022 | [8] 0.039 | epoxomicin -0.005 | [9] -0.043 | [10] -0.05 | [11] 0.047 | rosiglitazone -0.043 | [12] -0.082 | [13] -0.011

PTK2 (UniProt Q05397)
inactive: [1] -0.005 | [2] 0.004 | [3] -0.004 | [4] 0.006 | Nexturastat A -0.013 | vemurafenib -0.02 | [5] 0.005 | [6] -0.027 | givinostat 0.14 | barasertib -0.006 | [7] 0.1 | volasertib 0.082 | [8] 0.001 | epoxomicin -0.018 | [9] -0.019 | [10] -0.046 | [11] 0.001 | rosiglitazone 0.028 | [12] -0.032 | [13] -0.01

QARS (UniProt P47897)
inactive: [1] 0.08 | [2] 0.084 | [3] -0.002 | [4] -0.106 | Nexturastat A 0.525 | vemurafenib -0.085 | [5] 0.029 | [6] 0.248 | givinostat 0.18 | barasertib 0.041 | [7] 0.164 | volasertib 0.042 | [8] 0.07 | epoxomicin -0.277 | [9] -0.034 | [10] 0.177 | [11] -0.088 | rosiglitazone -0.011 | [12] 0.384 | [13] 0.075

QPCTL (UniProt Q9NXS2)
inactive: [1] -0.04 | [2] 0.06 | [3] -0.098 | [4] -0.059 | Nexturastat A 0.03 | vemurafenib -0.069 | [5] -0.01 | [6] 0.044 | givinostat 0.005 | barasertib -0.006 | [7] 0.009 | volasertib -0.072 | [8] 0.033 | epoxomicin 0.001 | [9] 0.004 | [10] -0.06 | [11] -0.036 | rosiglitazone 0.036 | [12] 0.082 | [13] 0.07

PSME3 isoform 2 (UniProt P61289)
inactive: [1] -0.008 | [2] 0.028 | [3] -0.012 | [4] 0.013 | Nexturastat A -0.035 | vemurafenib 0.037 | [5] -0.025 | [6] 0.007 | givinostat -0.019 | barasertib -0.021 | [7] -0.009 | volasertib 0.067 | [8] -0.014 | epoxomicin -0.118 | [9] 0.036 | [10] 0.012 | [11] -0.009 | rosiglitazone 0.024 | [12] -0.039 | [13] -0.006

PSMA2 (UniProt P25787)
inactive: [1] 0.004 | [2] 0.013 | [3] -0.004 | [4] 0 | Nexturastat A 0.01 | vemurafenib -0.026 | [5] -0.029 | [6] 0.017 | givinostat -0.009 | barasertib -0.042 | [7] 0.028 | volasertib 0.117 | [8] -0.029 | epoxomicin -0.146 | [9] 0 | [10] 0.06 | [11] -0.004 | rosiglitazone -0.04 | [12] 0.018 | [13] -0.01
